Test: method code SF, from Hansch, C. & Leo, A. (1987). Log P database [Dataset]. Pomona College Medicinal Chemistry Project.

| logP | SMILES |
| --- | --- |
| 1.94 | C[C@@H]1C[C@H]2[C@@H]3C[C@H](F)C4=CC(=O)C=C[C@]4(C)[C@@]3(F)[C@@H](O)C[C@]2(C)[C@@]1(O)C(=O)CO |
| 2.62 | O=C(Nc1ccccc1)c1ccccc1 |

Reference: the SangsterLogP compilation
